Measurements reported in PubChem BioAssay AID1671195 (Yale University, 2021).

- Screen: 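Genes whose knockdown alters LDL uptake in liver cancer cells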 (primary screen)
- Cell system: human Huh7 hepatoma cells
- Knock-down reagent: siRNA pool against human genes, 18 nM
- Time to read-out: about 2 to 2.5 days of knockdown, then 8 h LDL uptake
- Challenge: DiI-labelled LDL at 30 µg/ml for 8 h, in lipoprotein-deficient serum medium
- Read-out: 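Per-cell DiI-LDL intensity by automated imaging; well means scaled to the plate median and given as a robust z-score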
- Reading the numbers: robust z-score: higher = more LDL uptake after knockdown
- Hit rule: 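a gene counts as active if at least two replicate z-scores exceed ±2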
Shown is an unselected part of about 22,000 reagents. About 1,510 of all reagents (6.9%) count as active. 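Active includes knockdowns raising or lowering LDL uptake; positive z-scores mean more uptake, negative mean less.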

target gene,PubChem SID,"robust z-score, replicate 1","robust z-score, replicate 2","robust z-score, replicate 3",activity call
CCT5 (chaperonin containing TCP1 subunit 5),SID442897921,-0.44,-0.5,-0.378,inactive
SLAMF7 (SLAM family member 7),SID442901837,-0.965,-1.07,-0.872,inactive
CCDC148 (coiled-coil domain containing 148),SID442884941,1.03,2.51,1.76,inactive
IGHV4OR15-8 (immunoglobulin heavy variable 4/OR15-8 (non-functional)),SID442883118,6.07,5.3,4.72,active
TDRP (testis development related protein),SID442904097,-1.33,-1.85,-1.3,inactive
FASN (fatty acid synthase),SID442886406,1.16,1.16,1.2,inactive
MAN1A2 (mannosidase alpha class 1A member 2),SID442898319,0.203,-0.624,-1.04,inactive
LOC153959 (retired record),SID442891213,0.622,-0.0583,0.385,inactive
ACP1 (acid phosphatase 1),SID442904687,-1.85,-1.84,-1.74,inactive
WWP1P1,SID442892760,-0.104,0.206,0.28,inactive
TIPE2 (TNF alpha induced protein 8 like 2),SID442890774,0.288,0.888,-0.066,inactive
RRP15 (ribosomal RNA processing 15 homolog),SID442892744,0.509,1.11,-1.23,inactive
SHPK (sedoheptulokinase),SID442887927,0.867,-0.000446,1.58,inactive
GPRACR (GPR107 adjacent cis regulating lncRNA),SID442896081,-0.235,-0.371,-0.102,inactive
PLCB4 (phospholipase C beta 4),SID442896288,-0.502,-0.0196,-0.249,inactive
SULF1 (sulfatase 1),SID442902528,-1.35,-1.28,-0.663,inactive
LOC440291 (retired record),SID442894689,-0.195,-0.33,0.254,inactive
LOC389437 (retired record),SID442887581,0.53,0.968,1.15,inactive
CPTP (ceramide-1-phosphate transfer protein),SID442900375,-0.622,-0.568,-1.07,inactive
LOC441809 (retired record),SID442893188,-0.159,0.275,0.121,inactive
LOC728073,SID442901638,-0.844,-1.04,-0.91,inactive
PRKRA,SID442886251,1.47,1.17,1.01,inactive
LOC154323 (retired record),SID442895592,-0.792,0.635,-0.397,inactive
DGKD (diacylglycerol kinase delta),SID442900082,-0.478,-0.885,-0.765,inactive
CYTH1 (cytohesin 1),SID442886852,1.09,1.39,0.658,inactive
MYNN (myoneurin),SID442899636,-0.156,-1.58,-0.211,inactive
MATK (megakaryocyte-associated tyrosine kinase),SID442888812,0.291,0.96,0.721,inactive
"OVOS1P (ovostatin 1, pseudogene)",SID442888880,1.57,0.258,0.112,inactive
RPL39 (ribosomal protein L39),SID442893267,-0.201,0.143,0.268,inactive
NECAP1 (NECAP endocytosis associated 1),SID442888888,3.16,-2.16,0.934,inactive
EPC2 (enhancer of polycomb 2),SID442901784,-1.24,-0.469,-1.17,inactive
RPIA (ribose 5-phosphate isomerase A),SID442901880,-0.853,-1.03,-1.05,inactive
ASCC3 (activating signal cointegrator 1 complex subunit 3),SID442886234,-0.223,2.49,1.39,inactive
FRMD3 (FERM domain containing 3),SID442883669,2.22,2.52,2.73,active
FSTL3 (follistatin like 3),SID442902562,-2.34,-1.52,0.548,inactive
TAAR6 (trace amine associated receptor 6),SID442896760,-0.23,-1.02,0.318,inactive
EXOC4 (exocyst complex component 4),SID442899123,-0.709,-0.0721,-0.957,inactive
TRIM71 (tripartite motif containing 71),SID442886282,-0.109,2.2,1.53,inactive
NRTN (neurturin),SID442902428,-1.37,-0.516,-1.33,inactive
LOC440997 (retired record),SID442896545,-0.332,-0.518,-0.00415,inactive
RNF187 (ring finger protein 187),SID442901883,-0.876,-1.9,-0.153,inactive
NTN5 (netrin 5),SID442899050,-0.624,-0.722,-0.366,inactive
BRINP1 (BMP/retinoic acid inducible neural specific 1),SID442894275,0.895,-1.33,0.302,inactive
SLC38A5,SID442888653,1.03,0.555,0.469,inactive
CIDEC (cell death inducing DFFA like effector c),SID442901967,-1.04,-1.21,-0.719,inactive
"ZNF321P (zinc finger protein 321, pseudogene)",SID442891953,0.231,0.372,0.0745,inactive
UBA52 (ubiquitin A-52 residue ribosomal protein fusion product 1),SID442904683,-1.56,-1.76,-2.09,inactive
GJA5 (gap junction protein alpha 5),SID442894362,0.506,-0.553,-0.12,inactive
NMRK1 (nicotinamide riboside kinase 1),SID442898467,-0.654,-0.367,-0.484,inactive
OSBPL10 (oxysterol binding protein like 10),SID442892808,-0.209,0.585,-0.0124,inactive
PURB (purine rich element binding protein B),SID442883376,2.96,2.97,3.34,active
"OPN1LW (opsin 1, long wave sensitive)",SID442901466,-0.907,-1.09,-0.718,inactive
FUT3 (fucosyltransferase 3 (Lewis blood group)),SID442890618,0.455,0.131,0.587,inactive
CEP72 (centrosomal protein 72),SID442888687,0.375,1.22,0.436,inactive
GUCA2B (guanylate cyclase activator 2B),SID442890747,-0.0879,1.61,-0.395,inactive
SLC46A2,SID442904392,-1.42,-1.86,-1.57,inactive
LOC391779 (retired record),SID442893279,-0.124,0.162,0.167,inactive
PKD1L3,SID442888561,0.448,0.805,0.843,inactive
PHF21A (PHD finger protein 21A),SID442904332,-1.5,-1.58,-1.68,inactive
SLC16A13,SID442886209,0.743,1.72,1.23,inactive
MYOM2 (myomesin 2),SID442893138,0.00774,-0.363,0.608,inactive
LOC442165 (retired record),SID442892372,0.331,0.1,0.0949,inactive
KRTAP4-4 (keratin associated protein 4-4),SID442893371,0.372,-0.227,0.0319,inactive
ZIM2 (zinc finger imprinted 2),SID442893775,0.061,0.168,-0.195,inactive
PPP1R26 (protein phosphatase 1 regulatory subunit 26),SID442904028,-1.95,-0.835,-1.62,inactive
DCTD (dCMP deaminase),SID442884144,1.03,1.95,2.71,active
LOC341098 (retired record),SID442887127,0.918,0.725,1.3,inactive
SRI (sorcin),SID442899754,-0.38,-0.999,-0.615,inactive
CD302 (CD302 molecule),SID442884093,2.01,1.73,2.21,active
RNF14 (ring finger protein 14),SID442893157,0.316,0.357,-0.424,inactive
CNGB1 (cyclic nucleotide gated channel subunit beta 1),SID442899134,-0.718,-0.598,-0.428,inactive
HS2ST1 (heparan sulfate 2-O-sulfotransferase 1),SID442898816,-0.791,-0.543,-0.291,inactive
CABP2 (calcium binding protein 2),SID442890320,0.508,0.181,0.612,inactive
"RAB11B (RAB11B, member RAS oncogene family)",SID442904452,-1.28,-1.97,-1.7,inactive
GPC1 (glypican 1),SID442902083,-1.11,-0.768,-1.15,inactive
LOC389665 (retired record),SID442904019,-1.61,-1.44,-1.34,inactive
STX1A (syntaxin 1A),SID442894507,0.25,-0.266,-0.196,inactive
CCDC71L (coiled-coil domain containing 71 like),SID442893721,-0.344,0.666,-0.266,inactive
CPQ (carboxypeptidase Q),SID442901242,-0.713,-1.02,-0.887,inactive
KLK15 (kallikrein related peptidase 15),SID442902484,-1.03,-1.38,-0.847,inactive
APOC4 (apolipoprotein C4),SID442888638,0.271,1.11,0.678,inactive
COBLP1 (COBL pseudogene 1),SID442890869,-0.541,1.21,0.415,inactive
CELF5 (CUGBP Elav-like family member 5),SID442895763,-0.959,0.249,0.0993,inactive
HSD17B8 (hydroxysteroid 17-beta dehydrogenase 8),SID442889258,0.522,0.617,0.622,inactive
CIMIP5 (ciliary microtubule inner protein 5),SID442889104,0.795,0.768,0.274,inactive
CCM2 (CCM2 scaffold protein),SID442892059,-0.205,0.401,0.442,inactive
PDSS2 (decaprenyl diphosphate synthase subunit 2),SID442891107,0.407,-0.244,0.826,inactive

An excerpt from above, showing only “robust z-score, replicate 1”.
BRINP1 (BMP/retinoic acid inducible neural specific 1) [SID442894275] = 0.895
SLC38A5 [SID442888653] = 1.03
CIDEC (cell death inducing DFFA like effector c) [SID442901967] = -1.04
ZNF321P (zinc finger protein 321, pseudogene) [SID442891953] = 0.231
UBA52 (ubiquitin A-52 residue ribosomal protein fusion product 1) [SID442904683] = -1.56
GJA5 (gap junction protein alpha 5) [SID442894362] = 0.506
NMRK1 (nicotinamide riboside kinase 1) [SID442898467] = -0.654
